Results from US8802713B2, “3-alkoxy-1-phenylpyrazole derivatives and pesticides” (Kumiai Chemical Industry Co., Ltd., priority 2007, dated 2014).
Some entries share one result that the patent states for a list of compounds. For at least one compound, name, drawing or mass did not settle the structure.

Legend:
[1] = test system: two-spotted spider mites; assay: Miticidal test on two-spotted spider mites (seedling dip); assay type: in vivo, Tetranvchus urticae; settings: 500 ppm active ingredient, soybean seedlings with imago mites dipped, 25° C., 13 days
Method: A wettable powder prepared in accordance with Formulation Example 2 was diluted with water to a concentration of an active ingredient of 500 ppm. Soybean seedlings which had been inoculated with imago two-spotted spider mites were dipped in the solution and dried in air. The treated soybean seedlings were placed in a thermostatic chamber at 25° C. for 13 days, and the number of live mites were assessed for calculation of the protective value by Equation 1. The test was carried out by one series system.

[2] = test system: brown rice planthopper; assay: Insecticidal test on brown rice planthopper; assay type: in vivo; settings: 500 ppm active ingredient, rice sprouts dipped, third-instar larvae, 25° C., 6 days
In short: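 Rice sprouts dipped in 500 ppm active ingredient (water-diluted wettable powder), then exposed to ten third-instar brown rice planthopper larvae. Held at 25° C. for 6 days; dead larvae counted for mortality, single series.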

[3] = test system: cotton aphid; assay: Insecticidal test on cotton aphid (seedling dip); assay type: in vivo; settings: 500 ppm active ingredient, cucumber seedlings with larvae of cotton aphid dipped, 25° C., 3 days
Method: A wettable powder prepared in accordance with Formulation Example 2 was diluted with water to a concentration of an active ingredient of 500 ppm. Cucumber seedlings which had been inoculated with larvae of cotton aphid were dipped in this solution and dried in air. The treated cucumber seedlings were placed in a thermostatic chamber at 25° C. for 3 days, and the live insects were counted for calculation of the mortality by Equation 2. The test was carried out by one series system.

Row | Structure (SMILES) | protective value [1] | mortality [2] | mortality [3]
1 | Cc1cc(F)c(-n2ccc(OS(C)(=O)=O)n2)cc1SCC(F)(F)F [1-1] | ≥ 90 | ≥ 90% | –
2 | CC(=O)Nc1cc(OS(=O)(=O)C(F)(F)F)nn1-c1cc(SCC(F)(F)F)c(C)cc1F [1-3] | ≥ 90 | ≥ 90% | –
3 | CC(=O)Nc1cc(OS(=O)(=O)C(F)(F)F)nn1-c1cc([S+]([O-])CC(F)(F)F)c(C)cc1F (stereo not shown) [1-4] | ≥ 90 | ≥ 90% | –
4 | C#CCOc1cc(NC(C)=O)n(-c2cc([S+]([O-])CC(F)(F)F)c(C)cc2F)n1 (stereo not shown) [1-20] | ≥ 90 | ≥ 90% | –
5 | Cc1cc(F)c(-n2cc(Cl)c(OCC(F)(F)C(F)(F)F)n2)cc1SCC(F)(F)F [1-39] | ≥ 90 | ≥ 90% | –
6 | Cc1cc(F)c(-n2cc(Cl)c(OCC(F)(F)C(F)(F)F)n2)cc1[S+]([O-])CC(F)(F)F (stereo not shown) [1-40] | ≥ 90 | ≥ 90% | –
7 | Cc1cc(F)c(-n2nc(OCC(F)(F)C(F)(F)F)c(Cl)c2N)cc1[S+]([O-])CC(F)(F)F (stereo not shown) [1-44] | ≥ 90 | ≥ 90% | –
8 | CC(=O)Nc1c(F)c(OCC(F)(F)C(F)(F)F)nn1-c1cc(SCC(F)(F)F)c(C)cc1F [1-47] | ≥ 90 | – | –
9 | Cc1cc(F)c(-n2nc(OCC(F)(F)C(F)(F)F)c(Br)c2NC(=O)C(F)(F)F)cc1SCC(F)(F)F [1-49] | ≥ 90 | – | –
10 | Cc1cc(F)c(-n2ccc(OCC(F)(F)C(F)(F)C(F)(F)F)n2)cc1SCC(F)(F)F [1-51] | ≥ 90 | ≥ 90% | –
11 | Cc1cc(F)c(-n2ccc(OCC(F)(F)C(F)(F)C(F)(F)F)n2)cc1[S+]([O-])CC(F)(F)F (stereo not shown) [1-52] | ≥ 90 | ≥ 90% | –
12 | Cc1cc(F)c(-n2nc(OCCOCC(F)(F)F)cc2N)cc1SCC(F)(F)F [1-55] | ≥ 90 | – | –
13 | CC(=O)Nc1cc(OCC(F)(F)C(F)(F)C(F)(F)F)nn1-c1cc(SCC(F)(F)F)c(C)cc1F [1-57] | ≥ 90 | ≥ 90% | –
14 | CC(=O)Nc1cc(OCCOCC(F)(F)F)nn1-c1cc([S+]([O-])CC(F)(F)F)c(C)cc1F (stereo not shown) [1-64] | ≥ 90 | ≥ 90% | –
15 | Cc1cc(F)c(-n2cc(Cl)c(OCC(F)(F)C(F)(F)C(F)(F)F)n2)cc1SCC(F)(F)F [1-69] | ≥ 90 | ≥ 90% | –
16 | Cc1cc(F)c(-n2cc(Cl)c(OCC(F)(F)C(F)(F)C(F)(F)F)n2)cc1[S+]([O-])CC(F)(F)F (stereo not shown) [1-70] | ≥ 90 | ≥ 90% | –
17 | Cc1cc(F)c(-n2ccc(OCC(F)(F)C(F)(F)C(F)(F)C(F)(F)F)n2)cc1SCC(F)(F)F [1-73] | ≥ 90 | ≥ 90% | –
18 | Cc1cc(F)c(-n2ccc(OCC(F)(F)C(F)(F)C(F)(F)C(F)(F)F)n2)cc1[S+]([O-])CC(F)(F)F (stereo not shown) [1-74] | ≥ 90 | ≥ 90% | –
19 | Cc1cc(F)c(-n2ccc(OCC(F)(F)C(F)(F)C(F)(F)C(F)(F)C(F)(F)F)n2)cc1SCC(F)(F)F [1-81] | ≥ 90 | ≥ 90% | –

Row | Structure (SMILES) | protective value [1] | mortality [2] | mortality [3]
20 | Cc1cc(F)c(-n2ccc(OCC(F)(F)C(F)(F)C(F)(F)C(F)(F)C(F)(F)F)n2)cc1[S+]([O-])CC(F)(F)F (stereo not shown) [1-82] | ≥ 90 | ≥ 90% | –
21 | CC(=O)Nc1cc(OCC(F)(F)C(F)(F)C(F)(F)C(F)(F)C(F)(F)F)nn1-c1cc([S+]([O-])CC(F)(F)F)c(C)cc1F (stereo not shown) [1-86] | ≥ 90 | – | –
22 | Cc1cc(F)c(-n2nc(OCC(F)(F)C(F)(F)F)c(Cl)c2C)cc1[S+]([O-])CC(F)(F)F (stereo not shown) [1-94] | ≥ 90 | ≥ 90% | –
23 | Cc1cc(F)c(-n2nc(OCCCC(F)(F)F)cc2C)cc1[S+]([O-])CC(F)(F)F (stereo not shown) [1-104] | ≥ 90 | ≥ 90% | –
24 | Cc1cc(F)c(-n2nc(OCC(F)(F)C(F)(F)C(F)(F)C(F)(F)C(F)(F)F)cc2C)cc1SCC(F)(F)F [1-107] | ≥ 90 | ≥ 90% | –
25 | Cc1cc(F)c(-n2nc(OCc3ccc(C(F)(F)F)cc3)cc2C)cc1SCC(F)(F)F [1-109] | ≥ 90 | – | –
26 | Cc1cc(F)c(-n2nc(OCc3ccc(C(F)(F)F)cc3)cc2C)cc1[S+]([O-])CC(F)(F)F (stereo not shown) [1-110] | ≥ 90 | – | –
27 | Cc1cc(F)c(-n2nc(OCC(F)(F)C(F)(F)F)c(Cl)c2Cl)cc1[S+]([O-])CC(F)(F)F (stereo not shown) [1-112] | ≥ 90 | ≥ 90% | –
28 | Cc1cc(F)c(-n2nc(OCC(F)(F)C(F)(F)F)c(Br)c2Br)cc1[S+]([O-])CC(F)(F)F (stereo not shown) [1-114] | ≥ 90 | ≥ 90% | –
29 | COCC(=O)Nc1cc(OCC(F)(F)C(F)(F)F)nn1-c1cc(SCC(F)(F)F)c(C)cc1F [1-117] | ≥ 90 | ≥ 90% | –
30 | Cc1cc(F)c(-n2nc(OCC(F)(F)C(F)(F)F)cc2NC(=O)C2CC2)cc1SCC(F)(F)F [1-119] | ≥ 90 | – | –
31 | C=CC(=O)Nc1cc(OCC(F)(F)C(F)(F)F)nn1-c1cc(SCC(F)(F)F)c(C)cc1F [1-121] | ≥ 90 | ≥ 90% | –
32 | C=CC(=O)Nc1cc(OCC(F)(F)C(F)(F)F)nn1-c1cc([S+]([O-])CC(F)(F)F)c(C)cc1F (stereo not shown) [1-122] | ≥ 90 | ≥ 90% | –
33 | C=CCN(C(C)=O)c1cc(OCC(F)(F)C(F)(F)F)nn1-c1cc([S+]([O-])CC(F)(F)F)c(C)cc1F (stereo not shown) [1-128] | ≥ 90 | ≥ 90% | –
34 | CC#CCOc1cc(C)n(-c2cc(SCC(F)(F)F)c(C)cc2F)n1 [1-131] | ≥ 90 | ≥ 90% | –
35 | Cc1cc(F)c(-n2nc(OC(F)(F)C(F)C(F)(F)F)cc2C#N)cc1SCC(F)(F)F (stereo not shown) [1-155] | ≥ 90 | ≥ 90% | –
36 | Cc1cc(F)c(-n2nc(OCC(F)(F)C(F)(F)C(F)(F)F)cc2C#N)cc1[S+]([O-])CC(F)(F)F (stereo not shown) [1-158] | ≥ 90 | – | –
37 | CNc1cc(OC(F)(F)C(F)F)nn1-c1cc(SCC(F)(F)Cl)c(C)cc1F [1-1404] | ≥ 90 | ≥ 90% | –
38 | Cc1cc(F)c(-n2nc(OC(F)(F)C(F)F)cc2C)cc1SCC(F)(F)F [1-1417] | – | ≥ 90% | ≥ 90%

Row | Structure (SMILES) | protective value [1] | mortality [2] | mortality [3]
39 | Cc1cc(F)c(-n2nc(OCC(F)(F)Cl)cc2C)cc1SCC(F)(F)F [1-1419] | – | ≥ 90% | ≥ 90%
40 | C#CCNc1cc(OC(F)(F)C(F)F)nn1-c1cc(SCC(F)(F)F)c(C)cc1F [1-1421] | – | ≥ 90% | ≥ 90%
41 | C#CCNc1cc(OC(F)(F)C(F)F)nn1-c1cc([S+]([O-])CC(F)(F)F)c(C)cc1F (stereo not shown) [1-1422] | – | ≥ 90% | ≥ 90%
42 | Cc1cc(F)c(-n2nc(OC(F)(F)C(F)F)cc2Cl)cc1SCC(F)(F)F [1-1423] | – | ≥ 90% | ≥ 90%
43 | Cc1cc(F)c(-n2nc(OC(F)(F)C(F)Cl)cc2C)cc1SCC(F)(F)F (stereo not shown) [1-1425] | – | ≥ 90% | ≥ 90%
44 | COCC(=O)Nc1cc(OCC(F)(F)F)nn1-c1cc([S+]([O-])CC(F)(F)F)c(C)cc1F (stereo not shown) [1-1432] | – | ≥ 90% | ≥ 90%
45 | Cc1cc(F)c(-n2nc(OCC(F)(F)F)cc2C#N)cc1SCC(F)(F)F [1-1439] | – | ≥ 90% | ≥ 90%
46 | CCNc1cc(OC(F)(F)C(F)OC(F)(F)C(F)(F)F)nn1-c1cc(SCC(F)(F)F)c(C)cc1F (stereo not shown) [1-1513] | – | ≥ 90% | ≥ 90%
47 | CCNc1cc(OC(F)(F)C(F)OC(F)(F)C(F)(F)F)nn1-c1cc([S+]([O-])CC(F)(F)F)c(C)cc1F (stereo not shown) [1-1514] | – | ≥ 90% | ≥ 90%
48 | Cc1cc(F)c(-n2ccc(OC(C)C(F)(F)F)n2)cc1SCC(F)(F)F (stereo not shown) [1-1519] | – | ≥ 90% | ≥ 90%
49 | Cc1cc(F)c(-n2ccc(OC(C)C(F)(F)F)n2)cc1[S+]([O-])CC(F)(F)F (stereo not shown) [1-1520] | – | ≥ 90% | ≥ 90%
50 | CNc1cc(OCC(F)(F)C(F)(F)C(F)(F)C(F)(F)C(F)(F)C(F)(F)F)nn1-c1cc(SCC(F)(F)F)c(C)cc1F [1-1523] | – | ≥ 90% | ≥ 90%
51 | Cc1cc(F)c(-n2nc(OC(F)(F)C(F)C(F)(F)F)cc2C(F)F)cc1SCC(F)(F)F (stereo not shown) [1-1529] | – | ≥ 90% | ≥ 90%
52 | CCOc1ccn(-c2cc(SCC(F)(F)F)c(C)cc2F)n1 [1-1535] | – | ≥ 90% | ≥ 90%
53 | Cc1cc(F)c(-n2nc(OCC(F)(F)C(F)(F)F)cc2C(F)F)cc1SCC(F)(F)F [1-1541] | – | ≥ 90% | ≥ 90%
54 | Cc1cc(F)c(-n2ccc(OC(F)(F)C(F)Cl)n2)cc1SCC(F)(F)F (stereo not shown) [1-1553] | – | ≥ 90% | ≥ 90%
55 | Cc1cc(F)c(-n2nc(OC(F)(F)C(F)C(F)(F)F)cc2CF)cc1SCC(F)(F)F (stereo not shown) [1-1577] | – | ≥ 90% | ≥ 90%
56 | Cc1cc(F)c(-n2nc(OC(F)(F)C(F)C(F)(F)F)cc2CF)cc1[S+]([O-])CC(F)(F)F (stereo not shown) [1-1578] | – | ≥ 90% | ≥ 90%
57 | Cc1cc(F)c(-n2nc(OCC(F)(F)C(F)(F)C(F)(F)C(F)(F)F)cc2CF)cc1[S+]([O-])CC(F)(F)F (stereo not shown) [1-1582] | – | ≥ 90% | ≥ 90%
